3 substances from article doi:10.1101/2024.01.10.575035 can be followed below.

Chains of the proteins cited; added tags and fusions are not shown.
UniProt P27816: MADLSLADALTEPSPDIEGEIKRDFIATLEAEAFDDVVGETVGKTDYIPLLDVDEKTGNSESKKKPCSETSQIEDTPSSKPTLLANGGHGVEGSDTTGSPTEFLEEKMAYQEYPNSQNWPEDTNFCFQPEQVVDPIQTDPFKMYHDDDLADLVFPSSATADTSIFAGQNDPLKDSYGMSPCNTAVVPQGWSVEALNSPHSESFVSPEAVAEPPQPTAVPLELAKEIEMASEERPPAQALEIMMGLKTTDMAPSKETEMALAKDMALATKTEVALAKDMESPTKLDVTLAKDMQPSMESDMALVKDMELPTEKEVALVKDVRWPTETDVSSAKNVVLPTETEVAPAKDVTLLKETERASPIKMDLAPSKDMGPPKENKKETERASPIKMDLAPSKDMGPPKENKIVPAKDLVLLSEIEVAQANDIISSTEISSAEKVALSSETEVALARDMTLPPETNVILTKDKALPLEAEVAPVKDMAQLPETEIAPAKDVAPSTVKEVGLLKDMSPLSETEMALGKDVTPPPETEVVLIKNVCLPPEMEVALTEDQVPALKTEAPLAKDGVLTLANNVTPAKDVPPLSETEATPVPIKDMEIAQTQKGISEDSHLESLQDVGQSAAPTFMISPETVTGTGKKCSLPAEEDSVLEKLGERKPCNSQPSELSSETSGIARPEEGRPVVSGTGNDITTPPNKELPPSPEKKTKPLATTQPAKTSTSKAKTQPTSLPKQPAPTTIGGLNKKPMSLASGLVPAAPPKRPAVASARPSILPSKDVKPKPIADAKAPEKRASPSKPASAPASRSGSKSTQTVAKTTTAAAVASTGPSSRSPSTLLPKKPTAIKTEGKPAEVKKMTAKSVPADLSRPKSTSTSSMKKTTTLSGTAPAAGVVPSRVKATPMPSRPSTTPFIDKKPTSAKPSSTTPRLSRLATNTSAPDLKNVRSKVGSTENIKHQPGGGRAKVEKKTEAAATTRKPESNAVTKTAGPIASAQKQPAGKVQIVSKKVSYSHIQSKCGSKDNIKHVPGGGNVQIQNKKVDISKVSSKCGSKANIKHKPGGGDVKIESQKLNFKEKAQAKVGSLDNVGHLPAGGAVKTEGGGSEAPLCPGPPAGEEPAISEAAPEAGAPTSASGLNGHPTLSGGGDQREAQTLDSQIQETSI
UniProt O00459: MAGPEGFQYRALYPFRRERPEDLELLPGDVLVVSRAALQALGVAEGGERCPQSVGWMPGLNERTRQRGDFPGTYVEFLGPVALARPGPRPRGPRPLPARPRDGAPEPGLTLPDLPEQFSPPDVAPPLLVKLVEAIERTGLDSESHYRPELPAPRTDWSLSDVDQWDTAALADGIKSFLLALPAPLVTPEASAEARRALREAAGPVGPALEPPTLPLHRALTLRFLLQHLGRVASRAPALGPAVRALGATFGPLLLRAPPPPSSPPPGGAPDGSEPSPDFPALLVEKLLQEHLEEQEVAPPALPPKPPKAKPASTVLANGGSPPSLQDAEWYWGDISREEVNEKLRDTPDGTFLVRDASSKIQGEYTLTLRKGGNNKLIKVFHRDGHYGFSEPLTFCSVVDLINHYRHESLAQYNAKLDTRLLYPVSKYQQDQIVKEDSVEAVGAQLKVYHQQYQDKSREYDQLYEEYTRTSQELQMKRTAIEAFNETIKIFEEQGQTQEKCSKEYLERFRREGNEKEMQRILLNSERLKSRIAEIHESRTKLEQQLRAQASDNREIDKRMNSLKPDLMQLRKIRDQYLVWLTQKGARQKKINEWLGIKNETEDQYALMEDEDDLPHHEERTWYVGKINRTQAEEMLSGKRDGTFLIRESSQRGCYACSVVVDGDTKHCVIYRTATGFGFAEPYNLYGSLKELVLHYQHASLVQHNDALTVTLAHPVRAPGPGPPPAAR

The target of experiment [1] is HA-tagged wild-type p110α (stably expressed in MDA-MB-231) (human) (UniProt P42336). The experiment is described as follows: co-IP.
Experiment [2] has as its target p110α catalytic subunit (endogenous, MDA-MB-231) (human (endogenous in MDA-MB-231)) (UniProt P42336). The experiment is described as follows: co-IP.
Experiment [3] shares this target. The experiment is described as follows: proximity ligation.

Results are given in words; binding and its absence hold for the method and conditions named. In cells and extracts the contact can be indirect. Some results given as binding are weak or reduced against the parent protein; the word gives no strength.

With “EGFR (endogenous, MDA-MB-231) (from UniProt P00533 25-1210) (receptor)”, in experiment [1], the binding entry is given as “binds”.
Regarding “microtubule-associated protein 4 (MAP4) (endogenous, MDA-MB-231) (from UniProt P27816 1-1152)”, the binding result in experiment [2] and in experiment [3] was “binds” each time.
With “p85β adaptor subunit (endogenous, MDA-MB-231) (from UniProt O00459 1-728)”, in experiment [2], the binding entry was “binds”.
